Assay results taken from the supplement of paper PMC11006884.
This list holds what a sample rich in targets with a hit left over. This is a noisy data set. This is a selection; strong and weak results do not stand in their true shares.

Compound: COC(=O)/C=C/c1ccccc1 [methyl cinnamate]
Assay: log2 ratio of iodoacetamide-alkyne labeling of the cysteine site, DMSO over compound (competition); higher = stronger covalent engagement of the cysteine by the compound, active = 1 or more
Conditions: 500 µM; treatment time 1 h; system: HEK293T cell lysate
In short: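 HEK293T lysate (2 mg/mL) was treated with DMSO or electrophile (500 µM, 1 h, ambient temperature), then iodoacetamide alkyne (1 h), clicked to sCIP-TMT reagents, pooled, trypsin-digested overnight at 37 °C, streptavidin-enriched and acid-eluted. Peptides were run on Orbitrap Eclipse LC-MS/MS with FAIMS and quantified in FragPipe. The log2 competition ratio per cysteine is mean control-channel over mean compound-channel reporter intensity. Duplicate channels and three replicates were used, and cysteines quantified in only one replicate were excluded.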

Target | log2 ratio of iodoacetamide-alkyne labeling
MMS19 C549 (UniProt Q96T76) | inactive: 0.174
NCAPG C966 (UniProt Q9BPX3) | inactive: 0.146
MYBBP1A C338 (UniProt Q9BQG0) | inactive: 0.191
SRPK1 C356 (UniProt Q96SB4) | inactive: 0.186
PIK3R4 C759 (UniProt Q99570) | inactive: -0.235
ADO C258 (UniProt Q96SZ5) | inactive: 0.116
TTC1 C149 (UniProt Q99614) | inactive: 0.162
DNAJC2 C394 (UniProt Q99543) | inactive: -0.183
UniProt Q96MG7_C283 | inactive: 0.174
ELAC2 C609 (UniProt Q9BQ52) | inactive: 0.128
EHMT2 C617 (UniProt Q96KQ7) | inactive: 0.403
PYURF C60 (UniProt Q96I23) | inactive: 0.311
PARK7 C46 (UniProt Q99497) | inactive: 0.117
ITCH C57 (UniProt Q96J02) | inactive: 0.398
WDR24 C474 (UniProt Q96S15) | inactive: 0.00859
NACC1 C464 (UniProt Q96RE7) | inactive: 0.0736
UHRF1 C762 (UniProt Q96T88) | inactive: 0.0265
RBM15 C785 (UniProt Q96T37) | inactive: 0.238
SRPK1 C647 (UniProt Q96SB4) | inactive: 0.361
TCF25 C216 (UniProt Q9BQ70) | inactive: 0.282
UniProt Q96NC0_C87 | inactive: -0.174
SCYL1 C512 (UniProt Q96KG9) | inactive: 0.0134

A run of entries from the list above:
Target | log2 ratio of iodoacetamide-alkyne labeling
PYURF C60 (UniProt Q96I23) | inactive: 0.311
PARK7 C46 (UniProt Q99497) | inactive: 0.117
